Library screening results

Amino acid sequences for entries named in this document (tags omitted).
UniProt E9BF75, entry or part of it: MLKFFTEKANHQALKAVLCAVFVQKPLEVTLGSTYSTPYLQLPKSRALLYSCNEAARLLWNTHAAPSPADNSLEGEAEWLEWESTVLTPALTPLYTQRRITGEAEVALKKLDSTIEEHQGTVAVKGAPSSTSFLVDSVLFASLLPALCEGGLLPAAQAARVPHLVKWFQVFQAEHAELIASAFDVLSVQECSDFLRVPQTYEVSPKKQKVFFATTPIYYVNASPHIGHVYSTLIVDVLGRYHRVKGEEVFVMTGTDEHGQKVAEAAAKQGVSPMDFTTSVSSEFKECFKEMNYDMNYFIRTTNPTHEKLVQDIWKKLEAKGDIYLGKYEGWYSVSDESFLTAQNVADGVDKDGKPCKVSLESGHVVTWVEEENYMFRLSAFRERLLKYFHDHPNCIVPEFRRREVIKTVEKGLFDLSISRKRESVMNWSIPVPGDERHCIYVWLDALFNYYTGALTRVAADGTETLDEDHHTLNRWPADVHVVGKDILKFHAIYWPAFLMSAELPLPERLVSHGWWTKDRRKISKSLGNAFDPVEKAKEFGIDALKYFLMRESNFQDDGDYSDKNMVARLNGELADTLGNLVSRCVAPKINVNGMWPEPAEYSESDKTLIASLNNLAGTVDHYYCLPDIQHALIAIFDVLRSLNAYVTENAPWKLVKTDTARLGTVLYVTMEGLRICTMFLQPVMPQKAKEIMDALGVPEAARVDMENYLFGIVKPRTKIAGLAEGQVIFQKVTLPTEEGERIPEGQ

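Methionyl-tRNA synthetase (putative), Leishmania donovani (UniProt E9BF75). Primary screen of methionyl-tRNA synthetase; the read-out is not stated. The test concentration is not given. Values are per cent inhibition. About 68,000 compounds were tested under these conditions; 0.035% (about 24) showed 50% or more at least once.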

Results are percentages, as filed.
The controls that fix the scale are not given in the record; negative values are as filed.
Compounds were drawn at random from those tested, without regard to their results.

| structure | inhibition |
|---|---|
| `CNc1nc2c(c(C(=O)N3CCCC3)n1)CN(Cc1ccco1)CC2` | 19.02 |
| `COCCNC(=O)CCNC(=O)c1ccc(N2CCC(C)=N2)cc1` | 14.29 |
| `CCOC(=O)c1nc(CC(=O)Nc2ccc3cc[nH]c3c2)no1` | -10.76 |
| `CCCc1nc(N2CCCCC2)c2c(n1)c(C)nn2CC` | 8.947 |
| `O=C(c1cc2ccccc2[nH]1)N1CCC(Nc2cccnn2)CC1` | 11.35 |
| `CS(=O)(=O)CCn1ccc(NC(=O)c2c(F)cccc2F)n1` | 8.467 |
| `Cc1ccc2nc(CN3CCC(O)(CN4CCCC4)CC3)cc(O)c2c1` | 0.2457 |
| `Cc1cc(C)n2c(CCCNS(=O)(=O)c3cccs3)nnc2n1` | 2.981 |
| `Cc1ccc2nc3n(c2c1)[C@@H](CNC(=O)c1ccncc1)COC3` | 5.085 |
| `c1cncc(-c2ccnn2CN2CCOCC2)c1` | 3.014 |
| `CC(C)NC(=O)[C@@H]1C[C@@H](N)CN1C(=O)c1cc2c([nH]c1=O)CCCC2` | 9.677 |
| `CNS(=O)(=O)CC(=O)N1CCC(c2cc3ccccc3[nH]2)CC1` | 16.53 |
| `COc1cc(Cl)ccc1C(=O)N1CCCC(c2cc(C)[nH]n2)C1` (stereo not drawn) | 19.33 |
| `CNc1cc(C)nc(NCc2cc(C)cc3c(C)c(C)[nH]c23)n1` | 21.94 |
| `Cn1nnc2c1CCN(Cc1nccs1)C2COCc1ccccc1` (stereo not drawn) | 12.89 |
| `CNc1nc(C(=O)N2CCn3nc(C(=O)OC)cc3C2)cs1` | 10.79 |
| `CNc1nc(N2CCN(Cc3ccsc3)C(CCO)C2)nc2c1CCC2` (stereo not drawn) | 13.65 |
| `COc1cc(N2C[C@@H]3COC[C@]3(COCc3ccccn3)C2)ncn1` | 4.667 |
| `CNCC[C@H]1CC(C)(C)Oc2ccc(OC)cc21` | 11.89 |
| `COc1c(C)cnc(CSc2nnc(C)s2)c1C` | 9.756 |
| `CNC(=O)CS(=O)(=O)Cc1coc(-c2ccc(F)cc2)n1` | 11.23 |
| `CN1C(=O)CC(c2ccccc2)C12CCN(CCO)CC2` (stereo not drawn) | 11.2 |
| `CC(C)c1nnc(NCc2cc3n(n2)CCN(C2CCCCC2)C3)s1` | 19.78 |
| `CCN(CC)C1CCN(C(=O)NCc2c(C)noc2C)CC1` | 22.5 |
| `Cn1ncc2c1C(COCC1CC1)N(Cc1ccoc1)CC2` (stereo not drawn) | 6.628 |
| `CC(C)c1cc(C(F)(F)F)n2nc(C3CCN(S(C)(=O)=O)C3)cc2n1` (stereo not drawn) | 12.73 |
| `CN1CCN(C2CCN(c3ccnc(-c4ccccc4)n3)CC2)C1=O` | 17.4 |
| `COCCNC(=O)c1cc(C(C)C)nc(N2CCCCC2)n1` | -4.271 |
| `CN(C)S(=O)(=O)N1CCCC(C)(c2ncc(C(N)=O)s2)C1` (stereo not drawn) | 10.13 |
| `Cn1ccc(C(=O)NC2CCC23CCN(Cc2cccnc2)CC3)c1` (stereo not drawn) | 1.5 |
| `COc1ccc(N2CCC(NS(=O)(=O)N(C)C(C)C)CC2)cc1` | 9.777 |
| `CC1CCCCN1C(=O)COc1nc(Cc2ccc(F)cc2)no1` (stereo not drawn) | 11.58 |
| `CN(CCNc1ncc2c(n1)CCN2c1ccccc1)S(C)(=O)=O` | 10.68 |
| `O=C(CNc1nc(C2CC2)ns1)N1CCc2sccc2C1` | 18.13 |
| `COc1ccccc1N1CCC(CNCc2c(C)nn(C)c2OC)C1` (stereo not drawn) | 13.17 |
| `Cn1nc(C2CCN(C(=O)Cc3cccc(F)c3)CC2)c2cccnc21` | 11.99 |
| `COCCCC1CCCN(C(=O)CCc2cc(O)no2)C1` (stereo not drawn) | 19.47 |
| `Cc1nc(C)c(S(=O)(=O)NC(=O)c2sccc2C)s1` | 11.71 |
| `O=C(c1n[nH]c2c1CCN(Cc1nccs1)C2)N1CCCC1` | 13.01 |
| `Cc1c(Cl)c(C(=O)NN2CCOCC2)nn1C` | 8.782 |
| `Cc1cc(N(C)CCCn2cccn2)nc(-c2cccnc2)n1` | 7.165 |
| `Cc1cc(N2CCc3c(ncn3C)C2)n2nc(C(F)(F)F)nc2n1` | 22.16 |
| `CC(C)Oc1cc(N2CC[C@H](CO)[C@@H](O)C2)nc(N)n1` | 13.86 |
| `Cn1cnc2c1CCN(Cc1csc(-c3ccccc3)n1)C2` | 7.731 |
| `Cc1ccc(C(=O)N(C)CC(=O)Nc2cccc(C)n2)cn1` | 9.42 |
| `O=C(C1CCN(S(=O)(=O)N2CCCC2)CC1)N1CCC2(CC1)OCCO2` | 9.577 |
| `CC(CN1CCCC1=O)NC(=O)Nc1cccnc1-n1cccn1` (stereo not drawn) | -0.5391 |
| `CNC(=O)[C@@H]1C[C@H]2CN(Cc3ccc(C)s3)C[C@H]2N1C(C)=O` | 9.936 |
| `CCC1CN(Cc2nnc(C3CC3)o2)CCC(=O)N1Cc1ccccc1` (stereo not drawn) | 4.545 |
| `CN(C)[C@@H]1CCN(C(=O)c2ccco2)[C@H]1Cc1cnn(C)c1` | 15.38 |
| `CCN(CC)C(=O)Cn1cc(-c2nc(C(C)C)no2)nn1` | 20.5 |
| `Cc1ccccc1CC(=O)N1CC[C@@](O)(CNS(C)(=O)=O)[C@H](O)C1` | 8.36 |
| `CN1CC(c2ccccc2)CC12CCN(C(=O)c1cncc(Cl)c1)CC2` (stereo not drawn) | 11.11 |
| `N#Cc1cnc(N2Cc3cnn(Cc4ccc(F)cc4)c3C2)nc1N` | 19.55 |
| `CN(Cc1cccc(OC(F)F)c1)Cc1nc2c(cnn2C)c(=O)[nH]1` | 3.429 |
| `COCCN1CC[C@@H]2OC[C@H](C(=O)N(C)Cc3ccccn3)C[C@@H]2C1` | 10.91 |
| `Cc1cccc(CN2CCC(N(C)Cc3nnc(C4CC4)n3C)C2)c1` (stereo not drawn) | 21.11 |
| `COCCNc1ccc(CC2CCCN(c3ncccn3)C2)nn1` (stereo not drawn) | 13.37 |
| `O=C(Nc1ccncc1)C1=NN(c2ccccc2)C(=O)CN1` | 14.93 |
| `Cc1nc(CSCCC(=O)NCc2ccc(N(C)C)cc2)cs1` | 22.22 |
| `CSc1nc(N)c2c(n1)N=C1COC(O)=C1C2c1cccc(Cl)c1` (stereo not drawn) | 16.71 |
| `Cc1cnc(CC2COCCN(C(=O)c3cncnc3)C2)cn1` (stereo not drawn) | 13.83 |
| `CC(C)C(=O)Nc1ncn(Cc2cccc(Br)c2)n1` | 3.846 |
| `Cc1ccc(CNc2ccccc2-n2ccc(C)n2)nc1` | 6.522 |
| `Cc1ccc(C(=O)N2CCCC(Nc3ccc(F)cc3)C2)cc1` (stereo not drawn) | 11.37 |
| `NC(=O)c1cccc(C2CCN(c3ncccn3)CC2)n1` | 7.349 |
| `CN(CCc1ccccn1)C(=O)c1cn(CCN2CCNCC2)nn1` | 10.08 |
| `Cc1nn(C)c(Cl)c1C1CCCN1C(=O)c1ccc(C(N)=O)cn1` (stereo not drawn) | 8.333 |
| `Cc1nc(CN(C)C(=O)Nc2cccc(COC(C)C)c2C)no1` | 12.88 |
| `Cc1noc(C)c1CN1CCOCC12CCN(c1ncccn1)CC2` | 13.51 |
| `O=C(NCC(O)c1cccs1)c1ccco1` (stereo not drawn) | 8.696 |
| `COc1ccccc1OCCc1cc(C2CCNC2)n[nH]1` (stereo not drawn) | 3.215 |
| `O=S(=O)(c1cn[nH]c1)N1CCCC1c1cc[nH]n1` (stereo not drawn) | 14.84 |
| `COc1cccc2c1OCC(C(=O)NCc1ncc3c(n1)CCC3)C2` (stereo not drawn) | 15.72 |
| `Cc1nn(C)c(Cl)c1S(=O)(=O)N(CC(N)=O)CC(C)C` | 12.71 |
| `NCc1cnc(Nc2ccccc2)nc1` | 9.164 |
| `CC(C)n1cc(CN2CCCN(C(=O)CN3CCCC3=O)CC2)cn1` | 7.222 |

The last 5 entries again:

{"structure": "O=S(=O)(c1cn[nH]c1)N1CCCC1c1cc[nH]n1", "stereo": "stereo not drawn", "inhibition": 14.84}
{"structure": "COc1cccc2c1OCC(C(=O)NCc1ncc3c(n1)CCC3)C2", "stereo": "stereo not drawn", "inhibition": 15.72}
{"structure": "Cc1nn(C)c(Cl)c1S(=O)(=O)N(CC(N)=O)CC(C)C", "inhibition": 12.71}
{"structure": "NCc1cnc(Nc2ccccc2)nc1", "inhibition": 9.164}
{"structure": "CC(C)n1cc(CN2CCCN(C(=O)CN3CCCC3=O)CC2)cn1", "inhibition": 7.222}

Source: ChEMBL document CHEMBL3988442, “University of Dundee, Small-Polar-MMV Screening Library” (2021).